The mice bore no tumour; each value counts animals alive of those treated. Survivors were counted at the toxicity check, usually on the fifth day, unless a day is given; later deaths do not show. Schedule codes are those of the source, read here as Q, the interval in days (D) or hours (H), X, the number of doses. Some entries hold several experiments; the results are listed from low to high.
Test system: B6D2F1 mice, nontumored toxicity test, survival
Assay: NCI In Vivo Anticancer Drug Screen. Data for tumor model Nontumored Animals (Toxicity Test) in B6D2F1 (BDF1) mice

O=c1[nH]cc(F)c(=O)[nH]1
survivor count (dose: 2.0 mg/kg/injection, schedule: Q01DX009 (ip), vehicle: water): 6 of 6
survivor count (dose: 2.0 mg/kg/injection, schedule: Q03HX016 (ip), vehicle: water): 6 of 6
survivor count (dose: 2.0 mg/kg/injection, schedule: Q03HX024 (ip), vehicle: water): 6 of 6
survivor count (dose: 2.5 mg/kg/injection, schedule: Q01DX009 (ip), vehicle: saline): 5 of 5
survivor count (dose: 2.5 mg/kg/injection, schedule: Q01DX017 (ip), vehicle: saline): 8 of 8
survivor count (dose: 4.0 mg/kg/injection, schedule: Q01DX009 (ip), vehicle: water): 6 of 6
survivor count (dose: 4.0 mg/kg/injection, schedule: Q03HX016 (ip), vehicle: water): 6 of 6
survivor count (dose: 4.0 mg/kg/injection, schedule: Q03HX024 (ip), vehicle: water): 6 of 6
survivor count (dose: 5.0 mg/kg/injection, schedule: Q01DX009 (ip), vehicle: saline): 5 of 5 and 8 of 8
survivor count (dose: 5.0 mg/kg/injection, schedule: Q01DX017 (ip), vehicle: saline): 8 of 8
survivor count (dose: 7.0 mg/kg/injection, schedule: Q01DX009 (ip), vehicle: saline): 5 of 5
survivor count (dose: 8.0 mg/kg/injection, schedule: Q01DX009 (ip), vehicle: water): 6 of 6
survivor count (dose: 8.0 mg/kg/injection, schedule: Q03HX016 (ip), vehicle: water): 6 of 6
survivor count (dose: 8.0 mg/kg/injection, schedule: Q03HX024 (ip), vehicle: water): 6 of 6
survivor count (dose: 8.0 mg/kg/injection, schedule: Q04DX003 (ip), vehicle: water): 6 of 6
survivor count (dose: 9.22 mg/kg/injection, schedule: Q01DX032 (other), vehicle: saline): 6 of 6
survivor count (dose: 10.0 mg/kg/injection, schedule: Q01DX009 (ip), vehicle: saline): 5 of 5 and 8 of 8
survivor count (dose: 10.0 mg/kg/injection, schedule: Q01DX017 (ip), vehicle: saline): 8 of 8
survivor count (dose: 11.3 mg/kg/injection, schedule: Q01DX012 (sc), vehicle: other): 6 of 6
survivor count (dose: 11.5 mg/kg/injection, schedule: Q01DX016 (other), vehicle: saline): 6 of 6
survivor count (dose: 11.5 mg/kg/injection, schedule: Q01DX032 (other), vehicle: saline): 6 of 6
survivor count (dose: 12.0 mg/kg/injection, schedule: Q01DX009 (ip), vehicle: saline): 5 of 5
survivor count (dose: 12.5 mg/kg/injection, schedule: Q04DX005 (ip), vehicle: saline): 8 of 8
survivor count (dose: 14.1 mg/kg/injection, schedule: Q01DX012 (sc), vehicle: other): 6 of 6
survivor count (dose: 14.4 mg/kg/injection, schedule: Q01DX012 (other), vehicle: saline): 6 of 6
survivor count (dose: 14.4 mg/kg/injection, schedule: Q01DX016 (other), vehicle: saline): 6 of 6
survivor count (dose: 14.4 mg/kg/injection, schedule: Q01DX032 (other), vehicle: saline): 6 of 6
survivor count (dose: 15.0 mg/kg/injection, schedule: Q01DX009 (ip), vehicle: saline): 10 of 10
survivor count (dose: 16.0 mg/kg/injection, schedule: Q01DX009 (ip), vehicle: water): 6 of 6
survivor count (dose: 16.0 mg/kg/injection, schedule: Q03HX016 (ip), vehicle: water): 6 of 6
survivor count (dose: 16.0 mg/kg/injection, schedule: Q03HX024 (ip), vehicle: water): 6 of 6
survivor count (dose: 16.0 mg/kg/injection, schedule: Q04DX003 (ip), vehicle: water): 6 of 6
survivor count (dose: 17.6 mg/kg/injection, schedule: Q01DX012 (sc), vehicle: other): 6 of 6
survivor count (dose: 18.0 mg/kg/injection, schedule: Q01DX012 (other), vehicle: saline): 6 of 6
survivor count (dose: 18.0 mg/kg/injection, schedule: Q01DX016 (other), vehicle: saline): 6 of 6
survivor count (dose: 18.0 mg/kg/injection, schedule: Q01DX032 (other), vehicle: saline): 6 of 6
survivor count (dose: 20.0 mg/kg/injection, schedule: Q01DX009 (ip), vehicle: saline): 10 of 10, 5 of 5, 8 of 8
survivor count (dose: 20.0 mg/kg/injection, schedule: Q01DX017 (ip), vehicle: saline): 8 of 8
survivor count (dose: 22.0 mg/kg/injection, schedule: Q01DX012 (sc), vehicle: other): 6 of 6
survivor count (dose: 22.5 mg/kg/injection, schedule: Q01DX008 (other), vehicle: saline): 6 of 6
survivor count (dose: 22.5 mg/kg/injection, schedule: Q01DX012 (other), vehicle: saline): 6 of 6
survivor count (dose: 22.5 mg/kg/injection, schedule: Q01DX016 (other), vehicle: saline): 6 of 6
survivor count (dose: 22.5 mg/kg/injection, schedule: Q01DX032 (other), vehicle: saline): 6 of 6
survivor count (dose: 25.0 mg/kg/injection, schedule: Q01DX009 (ip), vehicle: saline): 10 of 10
survivor count (dose: 25.0 mg/kg/injection, schedule: Q04DX003 (ip), vehicle: saline): 8 of 8
survivor count (dose: 25.0 mg/kg/injection, schedule: Q04DX005 (ip), vehicle: saline): 8 of 8
survivor count (dose: 27.5 mg/kg/injection, schedule: Q01DX005 (sc), vehicle: other): 6 of 6
survivor count (dose: 27.5 mg/kg/injection, schedule: Q01DX012 (sc), vehicle: other): 6 of 6
survivor count (dose: 28.1 mg/kg/injection, schedule: Q01DX008 (other), vehicle: saline): 6 of 6
survivor count (dose: 28.1 mg/kg/injection, schedule: Q01DX012 (other), vehicle: saline): 6 of 6
survivor count (dose: 28.1 mg/kg/injection, schedule: Q01DX016 (other), vehicle: saline): 6 of 6
survivor count (dose: 28.1 mg/kg/injection, schedule: Q01DX032 (other), vehicle: saline): 6 of 6
survivor count (dose: 30.0 mg/kg/injection, schedule: Q01DX009 (ip), vehicle: saline): 10 of 10
survivor count (dose: 32.0 mg/kg/injection, schedule: Q01DX009 (ip), vehicle: water): 6 of 6
survivor count (dose: 32.0 mg/kg/injection, schedule: Q03HX016 (ip), vehicle: water): 6 of 6
survivor count (dose: 32.0 mg/kg/injection, schedule: Q04DX003 (ip), vehicle: water): 6 of 6
survivor count (dose: 33.3 mg/kg/injection, schedule: Q01DX009 (ip), vehicle: saline): 5 of 5
survivor count (dose: 34.4 mg/kg/injection, schedule: Q01DX005 (sc), vehicle: other): 6 of 6
survivor count (dose: 35.2 mg/kg/injection, schedule: Q01DX006 (other), vehicle: saline): 6 of 6
survivor count (dose: 35.2 mg/kg/injection, schedule: Q01DX008 (other), vehicle: saline): 6 of 6
survivor count (dose: 35.2 mg/kg/injection, schedule: Q01DX012 (other), vehicle: saline): 6 of 6
survivor count (dose: 35.2 mg/kg/injection, schedule: Q01DX016 (other), vehicle: saline): 6 of 6
survivor count (dose: 35.2 mg/kg/injection, schedule: Q01DX032 (other), vehicle: saline): 6 of 6
survivor count (dose: 40.0 mg/kg/injection, schedule: Q01DX009 (ip), vehicle: saline): 5 of 5 and 8 of 8
survivor count (dose: 42.9 mg/kg/injection, schedule: Q01DX005 (sc), vehicle: other): 6 of 6
survivor count (dose: 44.0 mg/kg/injection, schedule: Q01DX006 (other), vehicle: saline): 6 of 6
survivor count (dose: 44.0 mg/kg/injection, schedule: Q01DX008 (other), vehicle: saline): 6 of 6
survivor count (dose: 44.0 mg/kg/injection, schedule: Q01DX012 (other), vehicle: saline): 6 of 6
survivor count (dose: 44.0 mg/kg/injection, schedule: Q01DX016 (other), vehicle: saline): 6 of 6
survivor count (dose: 44.0 mg/kg/injection, schedule: Q01DX032 (other), vehicle: saline): 6 of 6
survivor count (dose: 50.0 mg/kg/injection, schedule: Q01DX001 (ip), vehicle: saline): 8 of 8

Source: PubChem BioAssay AID186 (DTP/NCI, 2004)
